Values from PubChem BioAssay AID504764 (Drosophila RNAi Screening Center, 2011).
The deposit covers about 22,000 reagents; this is an unselected part of those with a known target gene and a result. Over the whole deposit, 403 (1.9%) are marked active. 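Unnormalised raw counts per well; ratio z-scores behind the hit calls and whether each hit raises or lowers signal are not deposited.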 Not stated in the record: the amount of reagent.

- Test: 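Genome-wide screen for regulators of Notch-driven gene expression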 (primary screen)
- Cell system: Drosophila Kc167 cells
- Reagent: long dsRNA against Drosophila genes
- Duration: about 5 days (4 days dsRNA, then 24 h after transfection)
- Treatment: transfection of constitutively active membrane-tethered Notch lacking the extracellular domain, read 24 h later
- Measurement: 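Firefly luciferase from an E(spl)m3 reporter with active Notch, plus control-promoter and uninduced reporter wells for normalisation; unnormalised counts, duplicate wells a and b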
- Reading the numbers: induced reporter light, run 1, well a and induced reporter light, run 1, well b: higher = more light from the Notch target reporter with active Notch; control promoter light, run 1, well a and control promoter light, run 1, well b: higher = more light from the viral control promoter (cell number, transfection, viability); uninduced reporter light, run 1, well a: higher = more light from the Notch target reporter without active Notch
- Hit rule: 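Wells with low control signal or poorly matching duplicates excluded; duplicates averaged; per source plate, z beyond ±2 for induced/control log2 ratio or beyond ±1.8 for induced/uninduced marks a hit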
- Calls: active = modifier hit (raised or lowered Notch signal); inactive = not a hit

Depletion of rtet [DRSC14160] came out at: induced reporter light, run 1, well a = 1.65e5; induced reporter light, run 1, well b = 1.68e5; control promoter light, run 1, well a = 1.53e5; control promoter light, run 1, well b = 1.68e5; uninduced reporter light, run 1, well a = 13220; inactive.
With knock-down of CG17019 [DRSC06642] the results were induced reporter light, run 1, well a = 1.37e5; induced reporter light, run 1, well b = 1.43e5; control promoter light, run 1, well a = 1.27e5; control promoter light, run 1, well b = 1.33e5; uninduced reporter light, run 1, well a = 12020; inactive.
Silencing of CG12617 [DRSC02176] came out at: induced reporter light, run 1, well a = 41485; induced reporter light, run 1, well b = 32960; control promoter light, run 1, well a = 40940; control promoter light, run 1, well b = 49480; uninduced reporter light, run 1, well a = 2130; inactive.
Knock-down of Cyp316a1 [DRSC11130] came out at: induced reporter light, run 1, well a = 1.43e5; induced reporter light, run 1, well b = 1.68e5; control promoter light, run 1, well a = 1.68e5; control promoter light, run 1, well b = 1.47e5; uninduced reporter light, run 1, well a = 8065; inactive.
Against CG4045 [DRSC18518] the deposit lists induced reporter light, run 1, well a = 1.35e5; induced reporter light, run 1, well b = 1.68e5; control promoter light, run 1, well a = 2.36e5; control promoter light, run 1, well b = 2.12e5; uninduced reporter light, run 1, well a = 11520; inactive.
Depletion of TrxT [DRSC22182] resulted in: inactive.
With knock-down of CG12851 [DRSC04131] the results were induced reporter light, run 1, well a = 1.86e5; induced reporter light, run 1, well b = 1.63e5; control promoter light, run 1, well a = 1.51e5; control promoter light, run 1, well b = 1.49e5; uninduced reporter light, run 1, well a = 12915; inactive.

Quoted from the listing for reference:
CG17019 [DRSC06642]: induced reporter light, run 1, well a = 1.37e5; induced reporter light, run 1, well b = 1.43e5; control promoter light, run 1, well a = 1.27e5; control promoter light, run 1, well b = 1.33e5; uninduced reporter light, run 1, well a = 12020; Call = inactive
CG12617 [DRSC02176]: induced reporter light, run 1, well a = 41485; induced reporter light, run 1, well b = 32960; control promoter light, run 1, well a = 40940; control promoter light, run 1, well b = 49480; uninduced reporter light, run 1, well a = 2130; Call = inactive

The list goes on.
CG3961 [DRSC10390] showed induced reporter light, run 1, well a = 87425; induced reporter light, run 1, well b = 1.10e5; control promoter light, run 1, well a = 59765; control promoter light, run 1, well b = 74370; uninduced reporter light, run 1, well a = 8085; inactive.
With knock-down of CG3961 [DRSC10391], the record shows induced reporter light, run 1, well a = 2.39e5; induced reporter light, run 1, well b = 2.28e5; control promoter light, run 1, well a = 3.45e5; control promoter light, run 1, well b = 2.95e5; uninduced reporter light, run 1, well a = 12460; inactive.
CG16959 [DRSC10230] scored induced reporter light, run 1, well a = 1.14e5; induced reporter light, run 1, well b = 1.20e5; control promoter light, run 1, well a = 66055; control promoter light, run 1, well b = 75145; uninduced reporter light, run 1, well a = 9680; inactive.
For Sem1 [DRSC02282], the entry reads induced reporter light, run 1, well a = 17230; induced reporter light, run 1, well b = 14878; control promoter light, run 1, well a = 16060; control promoter light, run 1, well b = 17232; uninduced reporter light, run 1, well a = 2630; inactive.
For CG4520 [DRSC15590] the deposit lists induced reporter light, run 1, well a = 2.57e5; induced reporter light, run 1, well b = 3.05e5; control promoter light, run 1, well a = 2.45e5; control promoter light, run 1, well b = 2.30e5; uninduced reporter light, run 1, well a = 20625; inactive.
